Percent effect of library compounds

Sequences of proteins named here, by UniProt entry; tags and fusion partners are left off. Residues count along the entry.
UniProt P9WNZ1, whole entry: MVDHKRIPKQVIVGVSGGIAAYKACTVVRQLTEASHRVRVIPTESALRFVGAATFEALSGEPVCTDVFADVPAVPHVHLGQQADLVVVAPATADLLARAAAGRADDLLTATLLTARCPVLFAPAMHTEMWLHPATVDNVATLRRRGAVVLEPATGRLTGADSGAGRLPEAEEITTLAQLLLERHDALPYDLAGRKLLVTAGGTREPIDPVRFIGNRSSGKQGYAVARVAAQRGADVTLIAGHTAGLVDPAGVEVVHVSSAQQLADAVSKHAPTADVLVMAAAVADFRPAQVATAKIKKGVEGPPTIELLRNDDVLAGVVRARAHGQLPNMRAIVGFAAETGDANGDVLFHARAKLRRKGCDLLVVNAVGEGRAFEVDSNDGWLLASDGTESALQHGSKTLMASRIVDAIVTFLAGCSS
UniProt P9WFT3, whole entry: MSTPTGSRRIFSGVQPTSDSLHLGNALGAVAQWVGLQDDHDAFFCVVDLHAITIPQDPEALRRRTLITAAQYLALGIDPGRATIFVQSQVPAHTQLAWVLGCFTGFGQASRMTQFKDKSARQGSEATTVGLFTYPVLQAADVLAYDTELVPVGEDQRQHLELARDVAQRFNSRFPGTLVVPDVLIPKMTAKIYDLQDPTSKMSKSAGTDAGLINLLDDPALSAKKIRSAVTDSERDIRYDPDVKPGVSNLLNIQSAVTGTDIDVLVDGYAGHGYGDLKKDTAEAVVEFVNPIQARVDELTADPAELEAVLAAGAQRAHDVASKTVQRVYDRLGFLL
UniProt Q4DA54, 1-478: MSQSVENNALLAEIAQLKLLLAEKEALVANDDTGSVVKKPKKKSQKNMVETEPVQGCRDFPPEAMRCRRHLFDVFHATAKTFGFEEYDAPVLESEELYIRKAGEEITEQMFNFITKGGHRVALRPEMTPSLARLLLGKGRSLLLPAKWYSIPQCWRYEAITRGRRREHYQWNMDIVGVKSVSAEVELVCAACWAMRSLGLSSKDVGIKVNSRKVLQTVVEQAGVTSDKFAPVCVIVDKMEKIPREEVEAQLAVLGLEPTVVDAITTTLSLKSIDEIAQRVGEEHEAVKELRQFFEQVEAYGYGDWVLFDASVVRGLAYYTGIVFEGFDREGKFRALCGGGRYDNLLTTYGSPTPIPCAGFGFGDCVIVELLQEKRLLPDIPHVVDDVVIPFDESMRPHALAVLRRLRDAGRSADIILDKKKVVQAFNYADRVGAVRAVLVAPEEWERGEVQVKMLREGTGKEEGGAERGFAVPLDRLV
UniProt Q8IDJ8, 1-583: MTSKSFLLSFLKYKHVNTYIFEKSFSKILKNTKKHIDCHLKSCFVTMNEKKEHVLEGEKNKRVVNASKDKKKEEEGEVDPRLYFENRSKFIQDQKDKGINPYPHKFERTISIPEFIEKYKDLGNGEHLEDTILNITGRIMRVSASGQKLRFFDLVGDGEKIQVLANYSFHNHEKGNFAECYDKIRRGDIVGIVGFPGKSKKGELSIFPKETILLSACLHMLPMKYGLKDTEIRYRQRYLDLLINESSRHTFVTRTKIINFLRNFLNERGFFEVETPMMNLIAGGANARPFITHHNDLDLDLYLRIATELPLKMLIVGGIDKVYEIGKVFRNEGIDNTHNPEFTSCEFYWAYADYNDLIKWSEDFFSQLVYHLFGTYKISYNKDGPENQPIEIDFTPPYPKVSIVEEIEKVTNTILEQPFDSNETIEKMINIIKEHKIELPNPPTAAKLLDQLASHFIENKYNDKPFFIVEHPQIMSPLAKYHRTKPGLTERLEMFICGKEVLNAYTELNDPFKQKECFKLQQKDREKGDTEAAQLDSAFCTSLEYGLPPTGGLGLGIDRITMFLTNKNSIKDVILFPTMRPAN

From ChEMBL document CHEMBL3988442, “University of Dundee, Small-Polar-MMV Screening Library” (2021).

A: 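Coenzyme A biosynthesis protein CoaBC, Mycobacterium tuberculosis (UniProt P9WNZ1). Enzyme assay of CoaBC with a phosphate dye (Biomol Green) read at 650 nm. Concentration: 30 µM. Direction is inferred from only a few compounds that gave an IC50; most scored high, so higher reads as stronger inhibition. Most strong results did not repeat in a second test. About 67,000 compounds were tested under these conditions; 0.06% (about 40) showed 50% or more at least once.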
B: 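Enzyme assay of tryptophanyl-tRNA synthetase; the read-out is not stated. Target: Tryptophan-tRNA ligase, Mycobacterium tuberculosis (UniProt P9WFT3). Compounds at 10 µM. Higher most likely means stronger inhibition; the record gives no direction and few retests gave an IC50. Size under these conditions: about 65,000 compounds, about 64 of them at 50% or above in at least one test.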
C: 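Enzyme assay of histidyl-tRNA synthetase; the read-out is not stated. Target: Histidine-tRNA ligase, Trypanosoma cruzi CL Brener (UniProt Q4DA54). Concentration: 30 µM. Higher reads as stronger inhibition (inferred: compounds with an IC50 in retests scored well above the rest). Size under these conditions: about 69,000 compounds, about 31 of them at 50% or above in at least one test.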
D: 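Enzyme assay of the cytosolic lysyl-tRNA synthetase in 384-well plates, read by luminescence. Target: Lysine-tRNA ligase, Plasmodium falciparum 3D7 (UniProt Q8IDJ8). Tested at 30 µM. Direction is inferred from only a few compounds that gave an IC50; most scored high, so higher reads as stronger inhibition. Size under these conditions: about 69,000 compounds, about 49 of them at 50% or above in at least one test.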

The filed quantity is “Percent Effect” (%). The record does not define 0% and 100%; most values in the screen are far below 50% and negative numbers occur (in some assays of this library far below -100). The compounds are a random part of those screened. A dash means the value is not listed here; it may have been measured.

SMILES,A,B,C,D
COCc1c(C(=O)O)nnn1Cc1cccc(C(F)(F)F)c1,14.94%,5.829%,0.5464%,11.98%
O=C1CSC(C(F)(F)F)c2c(O)nn(C3CCCC3)c2N1 (stereo not drawn),-3.544%,-1.159%,0%,3.029%
O=C(CN1C(=O)CCC1=O)NCc1nn(C2CCCC2)c2c1CCCC2,8.245%,-4.027%,0%,3.225%
Cc1ncc(CN2CCCC(c3cc(C(N)=O)[nH]n3)C2)s1 (stereo not drawn),-13.82%,20.18%,0.5814%,0.7694%
CN(C)C(=O)NC[C@H]1OC[C@@H]2CCN(Cc3ccoc3)C[C@@H]21,-0.1269%,16.26%,2.703%,-14.19%
Cc1cnn(CC2CCCCN2Cc2nc(C)c3ccccc3n2)c1 (stereo not drawn),15.23%,24.01%,16.14%,0.0703%
Cc1cccnc1C(=O)N1CCCC(Cc2cncc3ccccc23)C1 (stereo not drawn),7.293%,-2.51%,6.844%,-0.06078%
Cc1ccc2cc(C(=O)N3CCC(O)(C(F)(F)F)CC3)ccc2n1,9.457%,1.769%,1.685%,-3.67%
CCOCCNC(=O)C1CCC(=O)N(CCc2ccc(Cl)cc2)C1 (stereo not drawn),2.041%,1.528%,-0.4464%,2.137%
Cc1cnn(CC(=O)N2CCCN(c3nc(C)cs3)CC2)c1,2.887%,-9.398%,10.29%,1.907%
Cc1cccc(C(=O)NCc2ccc(OCCN(C)C)cc2)c1C,-9.524%,1.215%,4.082%,4.629%
COCc1cc(NCc2cccnc2Oc2ccc(C)nc2)ncn1,-,-1.032%,9.211%,-3.081%
CC(C)NC[C@H]1COCc2nc3cccnc3n21,6.129%,-0.4647%,2.488%,1.18%
Cc1nc(C(=O)N2CCC(c3nccn3Cc3ccncc3)CC2)cs1,0.6031%,0.7971%,1.508%,0.5761%
COC(=O)CCC(=O)N1CCC2(CN(Cc3ccccc3)C2)C1,-10.37%,18.97%,-3.738%,-0.463%
CC(NCc1ccccn1)c1ccc(N2CCN(C)CC2)c(F)c1 (stereo not drawn),-16.13%,1.92%,7.389%,6.502%
CCS(=O)(=O)N1CCCN(CCCOC)CC1,2.39%,-0.6803%,1.786%,3.412%
Cc1cc(N2CCC(NC(=O)CCc3cnn(C)c3)CC2)nc(C)n1,5.034%,-0.6552%,8.287%,3.085%
COCCNc1ccc(CNC(=O)C2COc3ccccc32)cc1 (stereo not drawn),2.211%,-1.667%,2.469%,-0.9182%
COc1ccc(CN2CC[C@H]3[C@H](CO[C@H]3CNC(=O)N(C)C)C2)cc1,8.055%,2.517%,2.488%,5.721%
CCOCC(O)CN1CCN(C(=O)c2cccc(CC#N)c2)CC1 (stereo not drawn),-15.68%,-5.97%,6.34%,-0.7311%
Cn1ccc2ccnc(CC3CN(C(=O)c4cscn4)C3)c21,-2.85%,-,0.7491%,1.164%
O=C(CN1CCOC(Cn2cccn2)C1)NCCc1cccs1 (stereo not drawn),7.846%,-6.58%,4.956%,0.7389%
CCOC(=O)CSc1ccc(-c2nc(C)no2)cn1,-3.388%,1.025%,3.415%,7.883%
CCC(C(=O)N1CCN(C(=O)N2CCOCC2)CC1)n1cccn1 (stereo not drawn),2.836%,-0.3003%,2.632%,4.498%
O=C1C[C@H]2[C@@H](CCN2C(=O)c2ccccc2)N1CCN1CCOCC1,9.677%,2.878%,1.653%,4.631%
Cc1ccccc1CC(=O)N1CCCn2cncc2C1,-2.381%,0.3221%,12%,3.237%
O=C(CCc1nnc(-c2ccccc2)o1)N1CCCC1c1ccc[nH]1 (stereo not drawn),0.9709%,-4.863%,7.182%,-3.553%
CCc1oc(C(=O)OC)cc1Cn1cccc(C(F)(F)F)c1=O,-0.7299%,1.089%,6.667%,-3.686%
CC[C@@H]1N(Cc2ccncc2)CCC[C@]12CCC(=O)N2CCOC,4.198%,6.08%,0%,-1.134%
CN1CC(C(=O)NC(C)(C)C)CC1=O (stereo not drawn),-1.505%,0.9046%,4.132%,1.132%
CC1N(c2cnn(C)c2)C(=O)COC12CCN(CC1CC1)CC2 (stereo not drawn),1.091%,-,-0.5587%,1.185%
O=C(Nc1nncs1)c1ccc(O)nc1,-,-1.514%,7.006%,0.7878%
Cc1cccc(NC(=O)N2CCN(Cc3nnc(C(C)C)o3)CC2)c1,0.4073%,1.685%,6.878%,10.93%
Cc1c(CN2C[C@@H](O)[C@H](Oc3cccc(F)c3)C2)cnn1C,1.36%,-9.098%,1.521%,2.583%
CN1N=C(C(=O)N2CCCCC2)S(=O)(=O)c2ccccc21,1.882%,-0.2366%,0.4878%,5.021%
COCCN1C[C@H]2CCN(c3ncccn3)CC[C@H]2S1(=O)=O,-2.258%,-0.8364%,3.483%,5.195%
COCCN(Cc1sccc1C)Cc1nccn1CCOC,3.342%,7.195%,3.352%,4.827%
O=S(=O)(c1cccs1)N1CCCn2cnc(CN3CCCC3)c2C1,2.919%,7.45%,2.703%,-8.306%
CC(C)n1nc2c(cc1=O)CN(c1ncnc3ccsc13)CC2,-9.728%,6.838%,10%,7.247%
O=C(NCCc1nc(-c2cccnc2)no1)c1ccc(C2CCCO2)s1 (stereo not drawn),4.637%,5.247%,-3.261%,-5.729%
CCn1cc(CN2CCCN(C(=O)c3cccc(C#N)c3)CC2)cn1,0%,-5.616%,3.429%,2.618%